Reference: the supplement of paper PMC10849652
The list shows a part of the results.

Chains of the proteins cited; added tags and fusions are not shown. Lines headed by an entry give the natural chain unless they say otherwise; changes in a name come on top.
UniProt Q9UK76: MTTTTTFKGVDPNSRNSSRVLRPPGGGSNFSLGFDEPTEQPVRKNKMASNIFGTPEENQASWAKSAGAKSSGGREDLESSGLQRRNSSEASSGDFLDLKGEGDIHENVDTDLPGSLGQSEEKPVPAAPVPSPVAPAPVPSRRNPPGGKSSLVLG
UniProt P17535: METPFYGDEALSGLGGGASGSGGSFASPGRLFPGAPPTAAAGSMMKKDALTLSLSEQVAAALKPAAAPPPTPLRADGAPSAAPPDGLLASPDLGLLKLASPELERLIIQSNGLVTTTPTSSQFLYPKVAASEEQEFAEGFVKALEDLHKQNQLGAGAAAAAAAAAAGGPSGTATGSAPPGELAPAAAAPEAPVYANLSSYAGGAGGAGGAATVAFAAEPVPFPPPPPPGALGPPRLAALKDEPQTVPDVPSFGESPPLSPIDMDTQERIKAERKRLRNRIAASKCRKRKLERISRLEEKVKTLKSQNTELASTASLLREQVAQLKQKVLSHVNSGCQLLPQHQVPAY
UniProt Q15652: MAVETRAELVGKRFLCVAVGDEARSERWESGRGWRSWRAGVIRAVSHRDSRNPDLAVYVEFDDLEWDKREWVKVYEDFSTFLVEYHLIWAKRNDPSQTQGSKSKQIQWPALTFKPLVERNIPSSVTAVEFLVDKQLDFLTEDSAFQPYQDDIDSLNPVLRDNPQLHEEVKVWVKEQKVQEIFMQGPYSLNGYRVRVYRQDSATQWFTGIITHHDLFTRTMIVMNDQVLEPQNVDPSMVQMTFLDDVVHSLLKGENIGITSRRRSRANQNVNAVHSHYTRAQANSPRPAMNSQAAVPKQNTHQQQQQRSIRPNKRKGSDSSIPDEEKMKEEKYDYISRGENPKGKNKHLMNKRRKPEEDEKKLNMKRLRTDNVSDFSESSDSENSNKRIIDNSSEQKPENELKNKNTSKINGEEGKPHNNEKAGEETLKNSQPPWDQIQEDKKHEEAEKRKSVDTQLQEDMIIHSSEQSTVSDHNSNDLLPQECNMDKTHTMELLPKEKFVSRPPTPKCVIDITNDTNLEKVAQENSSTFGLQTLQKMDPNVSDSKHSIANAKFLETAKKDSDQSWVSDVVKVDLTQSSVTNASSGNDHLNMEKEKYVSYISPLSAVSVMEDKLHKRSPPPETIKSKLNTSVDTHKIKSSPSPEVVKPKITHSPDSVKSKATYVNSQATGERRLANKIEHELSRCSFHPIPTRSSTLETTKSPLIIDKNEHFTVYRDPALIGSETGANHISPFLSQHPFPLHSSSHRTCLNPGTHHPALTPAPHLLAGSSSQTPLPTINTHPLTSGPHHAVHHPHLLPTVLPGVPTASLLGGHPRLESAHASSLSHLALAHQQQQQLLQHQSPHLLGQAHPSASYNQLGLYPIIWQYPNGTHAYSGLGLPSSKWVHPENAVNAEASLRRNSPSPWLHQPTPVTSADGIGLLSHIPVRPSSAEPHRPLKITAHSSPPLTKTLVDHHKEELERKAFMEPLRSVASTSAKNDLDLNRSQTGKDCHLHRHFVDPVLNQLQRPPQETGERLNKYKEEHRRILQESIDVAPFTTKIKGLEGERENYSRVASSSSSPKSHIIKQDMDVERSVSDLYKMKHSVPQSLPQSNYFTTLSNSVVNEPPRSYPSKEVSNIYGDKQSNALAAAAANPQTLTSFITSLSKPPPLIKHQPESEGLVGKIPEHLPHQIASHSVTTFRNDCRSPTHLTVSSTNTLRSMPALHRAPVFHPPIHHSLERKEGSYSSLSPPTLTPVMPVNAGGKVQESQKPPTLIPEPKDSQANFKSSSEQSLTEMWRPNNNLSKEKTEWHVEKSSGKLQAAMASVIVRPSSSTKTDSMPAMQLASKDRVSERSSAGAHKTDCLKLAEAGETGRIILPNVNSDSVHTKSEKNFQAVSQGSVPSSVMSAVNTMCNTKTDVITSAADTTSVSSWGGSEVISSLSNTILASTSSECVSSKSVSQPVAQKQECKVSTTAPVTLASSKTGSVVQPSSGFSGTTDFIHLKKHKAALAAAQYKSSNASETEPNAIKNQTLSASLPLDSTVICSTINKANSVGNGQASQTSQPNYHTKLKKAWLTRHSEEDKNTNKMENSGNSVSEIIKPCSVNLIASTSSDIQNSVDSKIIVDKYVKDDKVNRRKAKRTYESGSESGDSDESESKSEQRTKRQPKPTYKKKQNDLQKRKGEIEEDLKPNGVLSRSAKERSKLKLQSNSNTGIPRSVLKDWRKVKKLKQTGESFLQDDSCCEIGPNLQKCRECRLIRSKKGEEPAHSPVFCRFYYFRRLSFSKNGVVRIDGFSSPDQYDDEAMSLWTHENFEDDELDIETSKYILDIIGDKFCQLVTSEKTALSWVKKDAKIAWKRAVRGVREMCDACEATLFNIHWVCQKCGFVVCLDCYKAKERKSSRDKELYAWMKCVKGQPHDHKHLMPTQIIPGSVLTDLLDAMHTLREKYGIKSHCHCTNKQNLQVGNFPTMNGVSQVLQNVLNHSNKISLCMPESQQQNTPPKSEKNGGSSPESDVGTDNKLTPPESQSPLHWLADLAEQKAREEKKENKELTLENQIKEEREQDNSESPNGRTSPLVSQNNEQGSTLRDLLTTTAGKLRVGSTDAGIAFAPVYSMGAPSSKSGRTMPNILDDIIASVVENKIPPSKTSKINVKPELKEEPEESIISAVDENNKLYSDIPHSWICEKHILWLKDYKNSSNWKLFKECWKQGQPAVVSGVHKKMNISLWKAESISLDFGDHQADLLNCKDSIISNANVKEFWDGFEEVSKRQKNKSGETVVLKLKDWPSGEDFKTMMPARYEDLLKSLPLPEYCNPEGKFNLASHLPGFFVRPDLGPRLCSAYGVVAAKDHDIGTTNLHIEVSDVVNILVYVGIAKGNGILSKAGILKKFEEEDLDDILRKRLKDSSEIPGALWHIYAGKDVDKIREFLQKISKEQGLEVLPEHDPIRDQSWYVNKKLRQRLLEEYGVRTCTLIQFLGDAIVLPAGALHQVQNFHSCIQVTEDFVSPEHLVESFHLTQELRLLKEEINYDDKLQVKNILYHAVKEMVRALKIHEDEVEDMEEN
UniProt Q8N371: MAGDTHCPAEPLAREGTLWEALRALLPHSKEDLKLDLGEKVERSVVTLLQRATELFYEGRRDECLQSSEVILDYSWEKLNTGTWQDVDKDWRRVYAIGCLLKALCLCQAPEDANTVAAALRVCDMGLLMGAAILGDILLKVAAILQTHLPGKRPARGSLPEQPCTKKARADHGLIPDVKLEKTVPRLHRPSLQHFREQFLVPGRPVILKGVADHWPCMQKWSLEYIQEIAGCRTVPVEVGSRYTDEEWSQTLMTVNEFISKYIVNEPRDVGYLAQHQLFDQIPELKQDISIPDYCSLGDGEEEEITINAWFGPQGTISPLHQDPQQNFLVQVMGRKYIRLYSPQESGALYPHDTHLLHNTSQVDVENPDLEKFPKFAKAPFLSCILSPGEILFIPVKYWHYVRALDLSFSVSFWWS
UniProt Q96SI1: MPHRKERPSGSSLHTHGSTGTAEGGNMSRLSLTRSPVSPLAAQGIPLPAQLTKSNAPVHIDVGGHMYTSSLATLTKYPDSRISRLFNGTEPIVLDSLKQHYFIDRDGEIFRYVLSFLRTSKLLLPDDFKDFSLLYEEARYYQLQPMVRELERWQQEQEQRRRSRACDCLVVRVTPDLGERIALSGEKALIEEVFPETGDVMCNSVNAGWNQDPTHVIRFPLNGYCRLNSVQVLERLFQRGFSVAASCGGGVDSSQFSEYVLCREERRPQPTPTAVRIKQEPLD
UniProt Q9Y597: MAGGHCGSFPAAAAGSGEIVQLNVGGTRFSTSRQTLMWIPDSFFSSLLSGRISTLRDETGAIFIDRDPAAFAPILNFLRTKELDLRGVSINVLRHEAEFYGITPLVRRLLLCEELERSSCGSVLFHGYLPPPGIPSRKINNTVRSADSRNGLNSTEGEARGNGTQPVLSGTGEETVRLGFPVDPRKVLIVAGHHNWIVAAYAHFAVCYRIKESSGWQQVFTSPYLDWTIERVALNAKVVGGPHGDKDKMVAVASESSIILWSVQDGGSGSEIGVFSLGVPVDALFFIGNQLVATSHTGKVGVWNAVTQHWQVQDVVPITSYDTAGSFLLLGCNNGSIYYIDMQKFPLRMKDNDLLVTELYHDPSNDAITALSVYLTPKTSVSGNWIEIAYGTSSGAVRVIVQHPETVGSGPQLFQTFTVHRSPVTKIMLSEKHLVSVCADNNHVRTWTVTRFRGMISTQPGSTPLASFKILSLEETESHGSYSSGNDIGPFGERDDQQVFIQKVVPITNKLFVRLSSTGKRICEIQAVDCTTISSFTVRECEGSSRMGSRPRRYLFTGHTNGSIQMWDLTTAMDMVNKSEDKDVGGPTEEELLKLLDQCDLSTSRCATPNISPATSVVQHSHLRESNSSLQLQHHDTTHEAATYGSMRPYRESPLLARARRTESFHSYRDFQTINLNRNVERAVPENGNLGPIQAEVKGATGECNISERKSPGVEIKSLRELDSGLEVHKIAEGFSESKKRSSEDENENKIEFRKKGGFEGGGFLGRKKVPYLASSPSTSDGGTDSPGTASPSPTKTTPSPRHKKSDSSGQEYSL
UniProt P57682: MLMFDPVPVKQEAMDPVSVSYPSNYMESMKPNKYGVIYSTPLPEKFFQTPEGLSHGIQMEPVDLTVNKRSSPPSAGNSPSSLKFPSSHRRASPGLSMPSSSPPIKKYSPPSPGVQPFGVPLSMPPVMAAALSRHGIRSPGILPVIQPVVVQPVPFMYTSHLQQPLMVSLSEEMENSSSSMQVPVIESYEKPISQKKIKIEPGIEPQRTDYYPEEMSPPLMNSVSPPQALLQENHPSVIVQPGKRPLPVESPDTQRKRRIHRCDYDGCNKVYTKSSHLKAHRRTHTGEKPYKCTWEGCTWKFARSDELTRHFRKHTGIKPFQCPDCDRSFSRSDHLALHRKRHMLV
UniProt O00505, whole entry, looked up: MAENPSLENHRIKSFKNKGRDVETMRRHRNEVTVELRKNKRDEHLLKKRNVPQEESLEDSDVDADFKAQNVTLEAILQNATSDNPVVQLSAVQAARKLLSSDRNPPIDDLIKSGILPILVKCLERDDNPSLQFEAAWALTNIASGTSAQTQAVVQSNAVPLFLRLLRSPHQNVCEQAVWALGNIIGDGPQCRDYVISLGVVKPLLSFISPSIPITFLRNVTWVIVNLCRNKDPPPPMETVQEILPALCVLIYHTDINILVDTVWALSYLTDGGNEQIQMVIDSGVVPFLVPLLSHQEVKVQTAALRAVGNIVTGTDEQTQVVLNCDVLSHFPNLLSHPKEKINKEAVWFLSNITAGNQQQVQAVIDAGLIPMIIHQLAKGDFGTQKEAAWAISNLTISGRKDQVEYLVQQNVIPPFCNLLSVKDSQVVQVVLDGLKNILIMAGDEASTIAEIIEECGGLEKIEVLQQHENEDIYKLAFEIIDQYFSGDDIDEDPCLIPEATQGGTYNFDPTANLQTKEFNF
UniProt Q8IZA0: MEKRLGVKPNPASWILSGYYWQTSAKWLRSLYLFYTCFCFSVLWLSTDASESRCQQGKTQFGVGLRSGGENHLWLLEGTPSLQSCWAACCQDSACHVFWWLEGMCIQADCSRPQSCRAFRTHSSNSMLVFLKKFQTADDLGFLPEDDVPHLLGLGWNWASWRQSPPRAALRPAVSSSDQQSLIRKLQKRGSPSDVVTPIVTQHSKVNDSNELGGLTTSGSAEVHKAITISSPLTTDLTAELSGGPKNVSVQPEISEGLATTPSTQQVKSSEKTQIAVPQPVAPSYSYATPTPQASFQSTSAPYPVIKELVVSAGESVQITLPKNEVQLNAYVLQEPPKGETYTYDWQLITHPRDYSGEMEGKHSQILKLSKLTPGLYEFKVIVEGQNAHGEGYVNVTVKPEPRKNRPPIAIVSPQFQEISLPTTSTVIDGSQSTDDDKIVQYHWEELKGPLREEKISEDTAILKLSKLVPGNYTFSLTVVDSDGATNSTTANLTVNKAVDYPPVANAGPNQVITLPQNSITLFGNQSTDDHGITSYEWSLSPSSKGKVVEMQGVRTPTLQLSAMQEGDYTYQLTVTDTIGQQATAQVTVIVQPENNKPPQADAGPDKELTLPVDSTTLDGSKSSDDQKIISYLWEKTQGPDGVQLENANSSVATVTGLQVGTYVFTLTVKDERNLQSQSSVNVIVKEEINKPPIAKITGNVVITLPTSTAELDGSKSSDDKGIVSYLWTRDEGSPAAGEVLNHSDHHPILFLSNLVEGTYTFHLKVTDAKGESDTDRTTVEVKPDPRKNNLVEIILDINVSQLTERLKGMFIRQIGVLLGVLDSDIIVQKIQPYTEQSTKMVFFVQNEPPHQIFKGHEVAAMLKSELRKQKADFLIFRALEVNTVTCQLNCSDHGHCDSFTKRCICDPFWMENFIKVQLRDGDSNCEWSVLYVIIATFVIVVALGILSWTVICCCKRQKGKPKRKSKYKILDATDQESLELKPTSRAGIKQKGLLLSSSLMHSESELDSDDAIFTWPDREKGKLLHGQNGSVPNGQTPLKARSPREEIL

What follows are targets tested with CC(C)(C)Cn1c(N)nc2ccc(-c3[nH]c(C(C)(C)C)nc3-c3ccc(F)cc3)nc21 [ralimetinib] (assay: log2 fold change, soluble protein after heating vs DMSO (PISA); higher = thermal stabilisation; K562 cells, 10 uM, 30 min; active = over 0.2 and 3.5 SD of the protein, either way, in both replicates (recomputed)).
In short: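 Values are thermal stability changes relative to control samples and are taken from duplicates. They are stated as log2 fold changes. Before quantification by TMTpro 16plex LC-MS/MS with equalised channel sums, K562 cells at 2×10^6 cells/mL were treated with 10 μM compound for 30 min, heated in aliquots for 3 min across 48°C-58°C, pooled, extracted in PBS with 0.5% NP-40 at 4°C, and centrifuged at 21,000xg for 90 min to give the soluble supernatant.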

log2 fold change, inactive:
KATNB1 (UniProt Q9BVA0) 0.042, KMT2D isoform 3 (UniProt O14686) 0.085, KCMF1 (UniProt Q9P0J7) -0.002, JPT1 (UniProt Q9UK76) -0.018, JUND (UniProt P17535) -0.018, JMJD1C (UniProt Q15652) 0.003, KDM8 isoform 3 (UniProt Q8N371) -0.023, JAGN1 (UniProt Q8N5M9) -0.092, KIDINS220 (UniProt Q9ULH0) -0.02, KCTD15 (UniProt Q96SI1) -0.091, KCTD3 (UniProt Q9Y597) -0.094, KIAA1143 (UniProt Q96AT1) -0.002, KHK isoform 2 (UniProt P50053) 0.023, KIF23 (UniProt Q02241) 0.078, KIAA1522 isoform 2 (UniProt Q9P206) 0.013, KLF3 (UniProt P57682) -0.025, KIF2A isoform 4 (UniProt O00139) 0.121, KIF5A (UniProt Q12840) -0.014, IVNS1ABP (UniProt Q9Y6Y0) 0.05, KPNA3 (UniProt O00505) -0.019, KIAA0319L (UniProt Q8IZA0) -0.027, KCNAB2 (UniProt Q13303) -0.019
